Laboratory results published in PubChem BioAssay (NCATS).
Inconclusive means that the source gave no clear call. Where the call is inconclusive, the potency comes from a doubtful curve fit.

Experiments:
[1] = MultiTox-Fluor Cytotoxicity Assay - LYMP1-003 - Dead Cells (AID 961); details: LYMP1-003 lymphoblastoid cells, dead-cell protease fluorescence; series mostly up to 92.2 µM;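 note: cells exposed to compound for 16 h at 37 °C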
Method in brief: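 LYMP1-003 lymphoblastoid, 2500 cells/well, 5 hr settle then 16 hr cpd at 37 C; MultiTox-Fluor reagent 60 min RT; Ex/Em 485/520 dead-cell signal; norm. DMSO = 0%, 15 uM tetraoctylammonium bromide = 100%; Hill AC50.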

[2] = Cell Viability - LYMP1-003 - Assay at 24 hr (AID 963); details: LYMP1-003 lymphoblastoid cell viability; series mostly up to 92.2 µM
Method in brief: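 Cells seeded at 2500/well, 5 hr at 37 C; compounds added; 24 hr at 37 C; CellTiter-Glo added, 30 min room temperature; luminescence read. Decrease in ATP taken as cytotoxicity, AC50 from Hill modelling.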

[3] = Cell Viability - LYMP1-003 - Assay at 40 hr (AID 964); details: LYMP1-003 lymphoblastoid viability; series mostly up to 92.2 µM
Method in brief: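 Cells were seeded at 2500 per well and incubated 5 hr at 37 C. Compounds were added across a concentration series and left 40 hr at 37 C. CellTiter-Glo was added for 30 min at room temperature before luminescence reading.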

[4] = Cell Viability - LYMP2-003 (AID 965); details: LYMP2-003 lymphoblastoid cell viability;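 note: cells exposed to compounds for 24 h before reading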
Method in brief: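 qHTS, human lymphoblastoid line, 2500 cells/well, complete medium. 24 h drug, 37 C. ATP-based luminescent readout; Hill-fit AC50.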

[5] = Cell Viability - LYMP2-004 (AID 966); details: LYMP2-004 lymphoblastoid cell viability, qHTS; series mostly up to 92.2 µM
Method in brief: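 Cells seeded 2500/well, rested 5 hr at 37 C, dosed across a concentration series, incubated 24 hr at 37 C, then CellTiter-Glo added for 30 min at room temperature and luminescence read. Hill fitting gave AC50.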

[6] = Cell Viability - LYMP2-005 (AID 967); details: LYMP2-005 lymphoblastoid cell viability; series mostly up to 92.2 µM
Method in brief: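 Luciferase-based ATP quantitation served as the viability measure in human lymphoblastoid LYMP2-005 cells exposed to test compounds for 24 h at 37 C in complete culture medium. Potency (AC50) was obtained by fitting concentration-response curves with the Hill equation.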

[7] = Cell Viability - LYMP2-009 (AID 968); details: LYMP2-009 lymphoblastoid cell viability; series mostly up to 92.2 µM
[8] = Cell Viability - LYMP2-011 (AID 969); details: LYMP2-011 lymphoblastoid cells viability
Method in brief: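 2500 cells/well, 5 hr 37 C; compound added, 24 hr 37 C; CellTiter-Glo 30 min RT; luminescence. qHTS concentration-response, Hill-equation AC50. Tetraoctylammonium bromide positive control.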

[9] = Cell Viability - LYMP2-013 (AID 970); details: LYMP2-013 lymphoblastoid cells viability
Method in brief: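 qHTS; 2500 lymphoblastoid cells/well; 5 hr 37 C settle; cpd 24 hr 37 C; CellTiter-Glo, 30 min RT; luminescence. AC50 = Hill fit.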

[10] = Cell Viability - LYMP2-017 (AID 972); details: LYMP2-017 lymphoblastoid cell viability
Method in brief: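 2500 cells/well, 5 h 37 C; cpd 24 h 37 C in complete medium; CellTiter-Glo, 30 min RT; luminescence (ATP). AC50 via Hill fit, qHTS.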

[11] = Cell Viability - LYMP2-019 (AID 973); details: LYMP2-019 lymphoblastoid cell line viability; series mostly up to 92.2 µM
Method in brief: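 Luminescent ATP read-out (CellTiter-Glo, 30 min room temperature) served as the viability measure after 24 hr treatment of lymphoblastoid cells at 37 C. Concentration-response data were fitted to the Hill equation for AC50.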

[12] = Cell Viability - LYMP2-021 (AID 974); details: LYMP2-021 lymphoblastoid cells viability; series mostly up to 92.2 µM;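 note: compound exposure lasts 24 hours at 37 °C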
Method in brief: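 Plate 2500 lymphoblastoid cells per well and incubate 5 hr at 37 C. Add compounds over a concentration range and incubate 24 hr at 37 C. Add CellTiter-Glo, wait 30 min at room temperature, read luminescence.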

[13] = Cell Viability - LYMP2-023 (AID 975); details: LYMP2-023 lymphoblastoid cell viability
Method in brief: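 2500 cells/well, 5 hr 37 C; cpd 24 hr 37 C; CellTiter-Glo, 30 min RT; luminescence. qHTS conc-response, Hill fit -> AC50. Pos ctrl tetraoctylammonium bromide.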

[14] = Cell Viability - LYMP2-025 (AID 976); details: LYMP2-025 lymphoblastoid cell viability; series mostly up to 92.2 µM
Method in brief: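 Seed 2500 LYMP2-025 cells/well; 5 hr at 37 C; add compound; 24 hr at 37 C; add CellTiter-Glo; 30 min RT; read luminescence. AC50 from Hill-modelled concentration-response.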

[15] = Cell Viability - LYMP2-002 (AID 977); details: LYMP2-002 lymphoblastoid cell viability, qHTS
Method in brief: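 Luminescent ATP readout (CellTiter-Glo, 30 min room temperature) after 24 h compound exposure at 37 C of a human lymphoblastoid line, 2500 cells/well. AC50 values derived by standard Hill fitting of qHTS concentration-response data.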

[16] = Cell Viability - LYMP2-007 (AID 979); details: LYMP2-007 lymphoblastoid cell viability; series mostly up to 92.2 µM;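 note: cells exposed to compound for 24 h before reading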
Method in brief: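 Luminescent ATP signal (CellTiter-Glo) serves as the viability read-out after 24 hr compound treatment of lymphoblastoid cells in complete medium at 37 C. Concentration-response data were fitted to the Hill equation to give AC50 values.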

[17] = Cell Viability - LYMP2-008 (AID 980); details: LYMP2-008 lymphoblastoid cell viability, qHTS; series mostly up to 92.2 µM
Method in brief: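 qHTS, human lymphoblastoid line, 2500 cells/well; 5 hr preincubation, 24 hr compound, 37 C. CellTiter-Glo ATP luminescence. AC50 via Hill equation. Tetraoctylammonium bromide positive control.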

[18] = Cell Viability - LYMP2-012 (AID 982); details: LYMP2-012 lymphoblastoid cell viability qHTS; series mostly up to 92.2 µM;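 note: cellular ATP by luciferase luminescence where a drop means cytotoxicity; cells exposed to compound for one day before reading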
[19] = Cell Viability - LYMP2-014 (AID 983); details: LYMP2-014 lymphoblastoid cells, viability qHTS; series mostly up to 92.2 µM
Method in brief: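 Luminescent ATP signal (CellTiter-Glo, 30 min at room temperature) serves as the viability read-out after 24 hr compound exposure at 37 C. Cells were seeded at 2500 per well and settled 5 hr beforehand.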

[20] = Cell Viability - LYMP2-016 (AID 984); details: LYMP2-016 lymphoblastoid cell viability, qHTS; series mostly up to 92.2 µM
Method in brief: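 Concentration-dependent ATP depletion measured in LYMP2-016 lymphoblastoid cells, 24 h, 37 C; luciferase-based luminescent detection; Hill-equation AC50.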

Measured: Potency
Potency is the fitted concentration of half-maximal effect.

CC(=O)[C@H]1CC[C@H]2[C@@H]3CCC4=CC(=O)CC[C@]4(C)[C@H]3CC[C@]12C
inconclusive: [1] 39.8 µM [cytotoxic, partial curve] | [2] 50.1 µM [cytotoxic, partial curve] | [3] 39.8 µM [cytotoxic, partial curve] | [4] 25.1 µM [cytotoxic, partial curve] | [5] 15.8 µM [cytotoxic, partial curve] | [6] 2.51 µM [cytotoxic, full curve, poor fit] | [7] 50.1 µM [cytotoxic, partial curve] | [8] 63.1 µM [cytotoxic, single point] | [9] 50.1 µM [cytotoxic, partial curve] | [10] 50.1 µM [cytotoxic, partial curve] | [11] 25.1 µM [cytotoxic, full curve] | [12] 50.1 µM [cytotoxic, partial curve] | [13] 50.1 µM [cytotoxic, partial curve, poor fit] | [14] 15.8 µM [cytotoxic, full curve, poor fit] | [15] 50.1 µM [cytotoxic, partial curve, poor fit] | [16] 31.6 µM [cytotoxic, full curve, poor fit] | [17] 39.8 µM [cytotoxic, partial curve] | [18] 50.1 µM [cytotoxic, partial curve, poor fit] | [19] 50.1 µM [cytotoxic, partial curve, poor fit] | [20] 79.4 µM [cytotoxic, single point]
